From patent publication US20240122978A1, “RETROVIRAL VECTOR FOR UNIVERAL RECEPTOR THERAPY” (Umoja BioPharma, Inc., priority 2019, published 2024)
“Also recorded” adds a separate entry of the source. For at least one compound, name, drawing or mass did not settle the structure.

System: CAR-expressing T cells
Test: Assessment of CAR expression and activation by flow cytometry
Assay type: cell-based
Details: 10 nM rapamycin vs 0 nM; FIGS. 2A-2F
Experimental: Cells were transferred to individual wells of a 96-well V-bottom plate, the plate was spun at 400×g for 5 min, cells were washed with 200 μL PBS and spun again at 400×g for 5 min. Cells were incubated for 10 min at room temperature in 50 μL/well Zombie NIR Fixable Viability Dye (diluted 1:3000 in PBS). Cells were then washed with […] buffer (1×PBS+2% FBS) and the plate was spun at 400×g for 5 min. Next, 50 μL/well of surface stain in FACS buffer were added to the cells and incubated for 45 min at 4° C.
Cells were washed with 150 μL FACS buffer and the plate was spun at 400×g for 5 min. Cells were then fixed with 100 μL/well of BD Cytofix/Cytoperm buffer for 20 min at 4° C. Cells were then washed with 100 μL BD Perm/Wash diluted 10-fold in water and the plate was spun at 400×g for 5 min. Cells were washed again with 200 μL BD Perm/Wash diluted 10-fold in water and the plate was spun again at 400×g for 5 min. 50 μL/well of intracellular stain in 1×BD Perm/Wash was added to the cells and incubated for 30 min at 4° C. Cells were washed with 150 μL, FACS buffer, the plate was spun at 400×g for 5 min and the cells were resuspended in 200 μL FACS buffer for analysis using a Beckman Coulter CytoFLEX S cytometer. As depicted in FIGS. 2A-2F, CAR-expressing T cells expand in the presence of the antigen FITC and this expansion is enhanced with rapamycin. […]

## CO[C@H]1C[C@@H]2CC[C@@H](C)[C@@](O)(O2)C(=O)C(=O)N2CCCC[C@H]2C(=O)O[C@H]([C@H](C)C[C@@H]2CC[C@@H](O)[C@H](OC)C2)CC(=O)[C@H](C)/C=C(\C)[C@@H](O)[C@@H](OC)C(=O)[C@H](C)C[C@H](C)/C=C/C=C/C=C/1C [rapamycin]
  expansion/enrichment of CAR-expressing T cells with rapamycin: enriched; also recorded: enhanced
